Counter-ions that a name gives are not always drawn. This is one part of the list. Small differences around the control level are noise. Where a SMILES comes first, the peptide text is derived from it. [ ]: non-standard residue; d: D form.
system: hPSC-derived cortical neurons (WA09); experiment: total neurite length per nucleus (MAP2) z-score; higher = more neurite growth; settings: 5 µM; treatment: days 7-14 after plating, readout day 21

Q: `Cc1ccc(C(=O)NCCCCCC(=O)Nc2ccccc2N)cc1` was tested. Which “total neurite length per nucleus (z-score)” value did it give?
A: Its value is 0.656.

Q: Which “total neurite length per nucleus (z-score)” value does the source give for `CN(C)CCC=C1c2ccccc2CCc2ccccc21` [Amitriptyline HCl] here?
A: The value was -1.28.

Q: Which “total neurite length per nucleus (z-score)” value does the source give for `Nc1nc(N)nc(-c2cc(Cl)ccc2Cl)n1` [Irsogladine] here?
A: The value was 0.801.

Q: For `O=S(=O)(NCCNC/C=C/c1ccc(Br)cc1)c1cccc2cnccc12`, which “total neurite length per nucleus (z-score)” value is on record?
A: Its value is 0.84.

Q: For `CS(=O)(=O)c1ccc(C(=O)Nc2ccc(Cl)c(-c3ccccn3)c2)c(Cl)c1` [Vismodegib (GDC-0449)], which “total neurite length per nucleus (z-score)” value is on record?
A: The value was 0.405.

Q: `CN[C@@H](C)C(=O)N[C@H](C(=O)N1CCC[C@H]1c1nc(C(=O)c2ccc(F)cc2)cs1)C1CCCCC1` was tested. Which “total neurite length per nucleus (z-score)” value did it give?
A: Its value is 0.237.

system: hPSC-derived cortical neurons (WA09); experiment: nucleus roundness z-score vs screen plate; higher = rounder nuclei (more mature); settings: 5 µM; treatment: days 7-14 after plating, readout day 21

Q: `CC(C)C[C@@H]1NC(=O)[C@@H](C(C)C)NC(=O)[C@@H]2CCCN2C(=O)[C@@H](CC(=O)O)NC(=O)[C@@H](Cc2c[nH]c3ccccc23)NC1=O` (cyclo(L[dW][dD]P[dV])) was tested. Which nucleus roundness z-score did it give?
A: The nucleus roundness z-score was 0.386.

Q: With `Cc1cc(/C=C/C#N)cc(C)c1Nc1ccnc(Nc2ccc(C#N)cc2)n1` [Rilpivirine] as the molecule, how does the nucleus roundness z-score read?
A: Its nucleus roundness z-score is 0.728.

Q: For `COc1cc(C(=O)NC2CCCNC2)cc(OC)c1OC` (stereo unspecified) [Troxipide], which nucleus roundness z-score is on record?
A: Its nucleus roundness z-score is 0.229.

Q: `CN1CCN(C(c2ccccc2)c2ccccc2)CC1` [Cyclizine 2HCl] was tested. Which nucleus roundness z-score did it give?
A: The nucleus roundness z-score was -0.0836.

Q: For `NCCOCCOCCNC(=O)Cc1ccc(Nc2nc(NCc3ccc(F)cc3)nc(NCC3CCCCC3)n2)cc1` [AP-III-a4 (ENOblock)], which nucleus roundness z-score is on record?
A: Its nucleus roundness z-score is -4.6.

Q: `CO[C@H]1/C=C/O[C@@]2(C)Oc3c(C)c(O)c4c(c3C2=O)C2=NC3(CCN(CC(C)C)CC3)NC2=C(NC(=O)/C(C)=C\C=C\[C@H](C)[C@H](O)[C@@H](C)[C@@H](O)[C@@H](C)[C@H](OC(C)=O)[C@@H]1C)C4=O` [Rifabutin] was tested. Which nucleus roundness z-score did it give?
A: Its nucleus roundness z-score is 1.39.

Q: `O=C(Nc1cccc(Cl)c1)c1ccccn1` was tested. Which nucleus roundness z-score did it give?
A: The nucleus roundness z-score was -0.845.

Q: How did the nucleus roundness z-score turn out when `O=C(NCCO[N+](=O)[O-])c1cccnc1` [Nicorandil] was run?
A: The nucleus roundness z-score was -0.179.

Q: For `O=C(O)P(=O)(O)O` [Foscarnet Sodium], which nucleus roundness z-score is on record?
A: The nucleus roundness z-score was 0.334.

Q: How did the nucleus roundness z-score turn out when `CN(C)CCOc1ccc(-c2nc(-c3ccncc3)c(-c3ccc4c(c3)CC/C4=N\O)[nH]2)cc1` was run?
A: Its nucleus roundness z-score is 2.41.

Q: How did the nucleus roundness z-score turn out when `CCNC(=O)[C@H]1O[C@@H](n2cnc3c(N)nc(NCCc4ccc(CCC(=O)O)cc4)nc32)[C@H](O)[C@@H]1O` was run?
A: The nucleus roundness z-score was 0.116.

Q: Which nucleus roundness z-score does the source give for `C/C(=C\c1ccc(C(=O)O)cc1)c1ccc2c(c1)C(C)(C)CCC2(C)C` [TTNPB (Arotinoid Acid)] here?
A: The nucleus roundness z-score was 0.599.

Q: `C=C[C@@]1(C)CC(=O)[C@]2(O)[C@@]3(C)[C@@H](O)CCC(C)(C)[C@@H]3[C@H](O)[C@H](OC(C)=O)[C@@]2(C)O1` [Forskolin] was tested. Which nucleus roundness z-score did it give?
A: Its nucleus roundness z-score is 2.61.

Q: `Cc1cc2c(F)c(Oc3ncnn4cc(OC[C@@H](C)O)c(C)c34)ccc2[nH]1` was tested. Which nucleus roundness z-score did it give?
A: The nucleus roundness z-score was 0.531.

Q: For `Cc1cc(C)nc(SCC(=O)Nc2ncc(Cc3cccc4ccccc34)s2)n1`, which nucleus roundness z-score is on record?
A: Its nucleus roundness z-score is 0.483.

Q: For `CCOC(=O)n1ccn(C)c1=S` [Carbimazole], which nucleus roundness z-score is on record?
A: Its nucleus roundness z-score is 0.531.

Q: How did the nucleus roundness z-score turn out when `COc1nccc(-c2c(-c3ccc(F)cc3)ncn2C2CCC(O)CC2)n1` (stereo unspecified) was run?
A: Its nucleus roundness z-score is 1.11.

Q: With `Nc1nc(O)c2ncn(CCC(CO)CO)c2n1` [Penciclovir] as the molecule, how does the nucleus roundness z-score read?
A: Its nucleus roundness z-score is 0.842.

Q: `CCCCCCCCCCCCCCCCn1cc[n+](Cc2ccccc2)c1C` was tested. Which nucleus roundness z-score did it give?
A: The nucleus roundness z-score was -105.

Q: For `Cc1cc(=O)oc2cc(O)ccc12` [4-Methylumbelliferone (4-MU)], which nucleus roundness z-score is on record?
A: The nucleus roundness z-score was -0.429.

Q: `N[C@@H](Cc1cc(I)c(Oc2cc(I)c(O)c(I)c2)c(I)c1)C(=O)O` [L-Thyroxine] was tested. Which nucleus roundness z-score did it give?
A: Its nucleus roundness z-score is 0.941.

Q: Which nucleus roundness z-score does the source give for `O=C(NCc1ccc(Oc2ccccc2)cc1)c1nc(-c2cc(Br)c(O)c(Br)c2)no1` here?
A: The nucleus roundness z-score was 1.5.

Q: For `Nc1ccc(C(=O)O)cc1` [4-Aminobenzoic acid], which nucleus roundness z-score is on record?
A: Its nucleus roundness z-score is -0.508.

Q: `CN1CCC(=C2c3ccccc3CC(=O)c3sccc32)CC1` [Ketotifen Fumarate] was tested. Which nucleus roundness z-score did it give?
A: The nucleus roundness z-score was 0.997.

Q: With `N[C@@H]1CN(c2c(F)cc3c(=O)c(C(=O)O)cn([C@@H]4C[C@@H]4F)c3c2Cl)CC12CC2` [Sitafloxacin Hydrate] as the molecule, how does the nucleus roundness z-score read?
A: Its nucleus roundness z-score is -0.0366.

Q: How did the nucleus roundness z-score turn out when `C#Cc1cccc(Nc2ncnc3cc(OC)c(OCCCCCCC(=O)NO)cc23)c1` was run?
A: The nucleus roundness z-score was -3.71.

Q: `CN1CCCC(n2nc(Cc3ccc(Cl)cc3)c3ccccc3c2=O)CC1` (stereo unspecified) [Azelastine HCl] was tested. Which nucleus roundness z-score did it give?
A: The nucleus roundness z-score was 0.0988.

Q: `CCS(=O)(=O)N1CC(CC#N)(n2cc(-c3ncnc4[nH]ccc34)cn2)C1` was tested. Which nucleus roundness z-score did it give?
A: Its nucleus roundness z-score is -0.383.

Q: With `CC[C@H](CO)Nc1nc(NCc2ccccc2)c2ncn(C(C)C)c2n1` [Roscovitine (Seliciclib_CYC202)] as the molecule, how does the nucleus roundness z-score read?
A: Its nucleus roundness z-score is 0.366.

Q: For `CCN(CC)Cc1ccc2cc(COC(=O)Nc3ccc(C(=O)NO)cc3)ccc2c1` [Givinostat (ITF2357)], which nucleus roundness z-score is on record?
A: Its nucleus roundness z-score is -5.66.

Q: Which nucleus roundness z-score does the source give for `CC(C)(C)OC(=O)N[C@H]1CCCCC/C=C\[C@@H]2C[C@@]2(C(=O)NS(=O)(=O)C2CC2)NC(=O)[C@@H]2C[C@@H](OC(=O)N3Cc4cccc(F)c4C3)CN2C1=O` [Danoprevir (ITMN-191)] here?
A: Its nucleus roundness z-score is 0.563.

Q: How did the nucleus roundness z-score turn out when `COC1=CC(c2cc3ccccc3[nH]2)=N/C1=C\c1[nH]c(C)cc1C` [Obatoclax Mesylate (GX15-070)] was run?
A: The nucleus roundness z-score was -8.57.

Q: With `C=C1C(=O)O[C@H]2[C@H]1CC/C(C)=C/CC[C@@]1(C)O[C@@H]21` [(-)-Parthenolide] as the molecule, how does the nucleus roundness z-score read?
A: The nucleus roundness z-score was -1.19.

Q: How did the nucleus roundness z-score turn out when `Cn1c(Nc2ccc(C(F)(F)F)cc2)nc2cc(Oc3ccnc(-c4ncc(C(F)(F)F)[nH]4)c3)ccc21` was run?
A: The nucleus roundness z-score was -1.8.

Q: How did the nucleus roundness z-score turn out when `Cc1ccc(C(=O)NCCCCCC(=O)Nc2ccccc2N)cc1` was run?
A: The nucleus roundness z-score was 0.63.

Q: For `CN(C)CCC=C1c2ccccc2CCc2ccccc21` [Amitriptyline HCl], which nucleus roundness z-score is on record?
A: The nucleus roundness z-score was -2.24.

Q: `Nc1nc(N)nc(-c2cc(Cl)ccc2Cl)n1` [Irsogladine] was tested. Which nucleus roundness z-score did it give?
A: The nucleus roundness z-score was 1.41.

Q: Which nucleus roundness z-score does the source give for `O=S(=O)(NCCNC/C=C/c1ccc(Br)cc1)c1cccc2cnccc12` here?
A: Its nucleus roundness z-score is 1.04.

Q: With `CS(=O)(=O)c1ccc(C(=O)Nc2ccc(Cl)c(-c3ccccn3)c2)c(Cl)c1` [Vismodegib (GDC-0449)] as the molecule, how does the nucleus roundness z-score read?
A: The nucleus roundness z-score was 0.447.

Q: `CN[C@@H](C)C(=O)N[C@H](C(=O)N1CCC[C@H]1c1nc(C(=O)c2ccc(F)cc2)cs1)C1CCCCC1` was tested. Which nucleus roundness z-score did it give?
A: The nucleus roundness z-score was 0.152.

From the supplement of paper PMC11348887
